From article PMC7037636, “Synthesis of New Series of 2-C-(β-D-glucopyranosyl)-Pyrimidines and Their Evaluation as Inhibitors of Some Glycoenzymes” (Molecules, 2020)

System: T1, bovine liver β-galactosidase
T1 construct: gene GLB1; commercial native enzyme from bovine liver (Sigma-Aldrich)
Test: PNP-β-Gal hydrolysis, absorbance at […] nm
Assay type: biochemical, Bos taurus
Conditions: 1 mM PNP-β-Gal, citrate-phosphate buffer pH 7.3, 37 °C, 0.12 mg/mL enzyme

SMILES: CCOC(=O)c1cnc([C@@H]2O[C@H](CO)[C@@H](O)[C@H](O)[C@H]2O)nc1N [11b, Ethyl 4-amino-2-(β-D-glucopyranosyl)-pirimidine-5-carboxylate]
- Inh. (3600 µM): 40%

SMILES: N#Cc1c(N)nc([C@@H]2O[C@H](CO)[C@@H](O)[C@H](O)[C@H]2O)nc1-c1ccccc1 [11e, 4-Amino-2-(β-D-glucopyranosyl)-6-phenyl-pirimidine-5-carbonitrile]
- Inh. (3000 µM): 56%

SMILES: N#Cc1c(-c2ccccc2)nc([C@@H]2O[C@H](CO)[C@@H](O)[C@H](O)[C@H]2O)[nH]c1=O [11f, 2-(β-D-Glucopyranosyl)-4-phenyl-6-oxo-1,6-dihydropyrimidine-5-carbonitrile]
- Inh. (3600 µM): 40%

SMILES: COC(=O)c1c(-c2ccccc2)nc([C@@H]2O[C@H](CO)[C@@H](O)[C@H](O)[C@H]2O)[nH]c1=O [11g, Methyl 2-(β-D-glucopyranosyl)-4-phenyl-6-oxo-1,6-dihydropyrimidine-5-carboxylate]
- Inh. (3000 µM): 85%

SMILES: OC[C@H]1O[C@@H](c2ncc(-c3ccccc3)cn2)[C@H](O)[C@@H](O)[C@@H]1O [18e, 2-(β-D-Glucopyranosyl)-5-phenylpyrimidine]
- Inh. (3600 µM): 30%

SMILES: COC(=O)c1cnc([C@@H]2O[C@H](CO)[C@@H](O)[C@H](O)[C@H]2O)nc1 [18f, Methyl 2-(β-D-glucopyranosyl)-pyrimidine-5-carboxylate]
- Inh. (3800 µM): 50%
